Experimental data taken from the supplement of paper PMC3334620.
Over roughly 33,000 sequences, “E-score (-0.5 to 0.5)” has its median near -0.015; the highest 2% begin near 0.3. The list shows a part of the results.

These sequences were tested against T1, Abf1 (UniProt P14164) (assay: PBM E-score (8-mer binding enrichment) (E-score (-0.5 to 0.5)); higher = stronger / more preferred TF binding). Conditions: protein concentration: 200 nM; construct: GST-full length.
T1 sequence: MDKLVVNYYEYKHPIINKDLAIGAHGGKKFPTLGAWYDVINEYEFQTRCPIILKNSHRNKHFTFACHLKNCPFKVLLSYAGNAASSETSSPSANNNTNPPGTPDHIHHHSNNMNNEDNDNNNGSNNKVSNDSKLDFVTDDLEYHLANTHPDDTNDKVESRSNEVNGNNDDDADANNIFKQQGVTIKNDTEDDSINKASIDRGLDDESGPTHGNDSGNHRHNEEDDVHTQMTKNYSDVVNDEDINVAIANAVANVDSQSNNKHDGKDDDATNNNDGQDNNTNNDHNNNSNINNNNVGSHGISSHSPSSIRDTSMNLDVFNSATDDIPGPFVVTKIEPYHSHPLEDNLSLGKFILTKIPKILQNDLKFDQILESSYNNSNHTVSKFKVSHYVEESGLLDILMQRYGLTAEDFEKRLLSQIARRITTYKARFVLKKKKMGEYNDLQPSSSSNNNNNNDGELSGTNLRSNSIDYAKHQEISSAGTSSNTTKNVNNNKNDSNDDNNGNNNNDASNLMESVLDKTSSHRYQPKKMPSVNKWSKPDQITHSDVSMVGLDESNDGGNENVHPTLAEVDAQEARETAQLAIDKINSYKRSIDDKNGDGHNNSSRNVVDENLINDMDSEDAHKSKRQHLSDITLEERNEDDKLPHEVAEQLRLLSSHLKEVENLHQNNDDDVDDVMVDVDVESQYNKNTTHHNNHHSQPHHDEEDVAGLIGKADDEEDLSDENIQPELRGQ
Outline: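 Universal all-10-mer Agilent arrays, fresh or stripped once, were converted to double-stranded form by primer extension. GST-tagged yeast transcription factors from PURExpress in vitro transcription/translation, full-length or DNA-binding domain only, were applied at about 100-200 nM and detected with fluorescent anti-GST. After masliner normalisation, the Universal PBM Analysis Suite scored each ungapped eight-base word together with its reverse complement by E-score.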

Sequence	PBM E-score
CGGTCATA	0.0316
ATTTGGAC	0.0475
GCTACTAC	0.0235
TAGCAAGA	-0.0485
ATTACCCC	0.0345
CCGCGACA	0.154
GCAATCAA	0.0156
CTAAATAA	0.0918
GGTGAGGA	0.03
TACAATGA	0.104
GCGGGGTA	-0.164
AGGATCAT	0.0179
AATCGCCC	-0.16
AGCCCGGG	-0.222
CAGAAGAA	-0.0698
AACTCGTG	0.12
AAACTGTT	-0.0371
CTGGACAC	-0.164
AACATTCT	-0.00019
GTCCTGAA	0.111
AATCCAGA	-0.0795
ATGCGGCG	0.0048
CTATTCCA	-0.0222
AGCAACTG	-0.123
TCGGACGA	0.325

Sequence	PBM E-score
ACTAAAAT	0.0237
AGCCTAAA	-0.0339
ATCAGGTA	-0.113
CCCTGTCG	-0.112
CACATGCA	-0.0413
ATAGTGAG	0.069
AAGTGGAC	0.0527
AATAAATT	0.313
TGCTATAA	-0.00372
AAGGGGAC	0.0257
ACATGCGC	0.193
ATCTACAA	0.0726
CACCATGG	-0.132
GTAATCTA	0.119
ACGCGCTC	0.0329
ATCAGGAG	-0.127
AGCGCCAC	-0.0429
ACTTAACC	0.0363
GAGCTCCC	-0.216
TGAAGTAA	0.06
AAAAGATC	0.0313
TACCTGGA	0.0454
CGGCGACC	-0.0958
AGCTTCAC	-0.0981
CTTATTCC	-0.0725

Taken from above:
Under PBM E-score, ATCAGGTA is listed with -0.113
Under PBM E-score, ATAGTGAG is listed with 0.069
Under PBM E-score, CTTATTCC is listed with -0.0725
Under PBM E-score, AGCGCCAC is listed with -0.0429
Under PBM E-score, ATCAGGAG is listed with -0.127
Under PBM E-score, AAAAGATC is listed with 0.0313
Under PBM E-score, AAGGGGAC is listed with 0.0257

Following part.

Sequence	PBM E-score
ATAGAGAC	0.0179
ATACAGAC	-0.0512
CGAGTAGC	0.0908
GTAAGTAA	0.0481
GAGATAAC	0.138
GTAGATCA	0.319
ACTCACTA	0.132
ATCGGCAG	-0.163
ACAAACGG	0.225
AGAGCTCC	-0.15
GTAGGCTA	-0.129
ATACAACA	0.0798
CGTTCGTC	0.358
ATAGTGGA	-0.0758
CATCGTGA	0.135
CTTTAGCC	-0.169
GGCCCCTA	-0.274
CTGTGAAC	0.0459
CCCTTATC	0.0862
TAGGTCGA	-0.0184
ATCAATAC	0.178
GAGATGCC	0.0132
GACAACGA	0.135
AGTTTCAG	-0.0696
ACCGGTCT	-0.212

Sequence	PBM E-score
ATGAAAAA	0.0991
AAGGACGC	-0.094
CCGGACCC	-0.239
CAGTTAAG	0.0216
ACGGCTAC	0.0914
CGTGAAGC	0.0234
TGAGGAAA	-0.0382
ACCAACGT	0.143
AAGAGTAG	0.00631
ACATTCGC	-0.039
AAGCGCGT	-0.0852
AAGTGGGT	-0.0525
GGCAGACA	-0.0298
GCCCCAAA	-0.139
TCGCTTCA	0.078
ATAACGTC	0.0479
GCTTGAAA	0.0038
GCGCTTCC	-0.046
ACCGCAAG	0.0196
CTTTGTCA	0.271
AGACTTCC	-0.177
AGGAATGG	-0.188
GATCATAC	0.226
CGACCTAG	0.0412
AATACACC	0.0439

Sequence	PBM E-score
ACATGTGA	-0.0437
CTGTTGAC	-0.189
CAGGGTGG	-0.175
ACTTTATA	0.213
ATACAAGC	-0.0742
CGACTGGC	-0.172
GATGACCA	0.191
ATTCTACC	0.0177
CACATATC	0.0968
ATCTGAGA	-0.0403
CAAAATAA	0.0118
AGATACGC	-0.0877
ACGTCCTC	-0.0913
ATGTTCGA	0.0272
ATTGACTC	-0.0611
GCTCGGTA	-0.0852
AGCATAAC	-0.0378
TACGGATA	0.215
GTCAGGGA	-0.148
GCGCACAC	-0.204
CGCAACGC	-0.00976
GGGGATAC	-0.0778
CAAGTCAC	0.207
GAGCACCC	-0.153
ACAGTTTA	-0.0111

Sequence	PBM E-score
CAGATTTC	-0.127
GGCTTTCA	0.116
GTTTCACA	-0.0433
CGTTGGAG	0.0605
CGGATTAC	0.091
CCTAGAGC	-0.219
CACGCCTA	0.0363
ACGCACAA	-0.146
AGTCAAAG	-0.0222
AATGAAGG	-0.0899
GCCGCCCA	-0.201
GACTGCCA	-0.0698
ACGTGCCC	0.0374
AACAAACG	-0.0162
GCTTCCTA	0.00478
AGTCTGGA	-0.205
CCTCGATA	0.0399
ATGAAAGC	0.132
CAGAGAAC	-0.0886
TTAGGGAA	0.0813
AGGCACGA	0.11
TCTCTACA	-0.00964
GCGGTCCC	-0.0918
GACTAGTA	-0.0512
ACCCCCCG	-0.297

Sequence	PBM E-score
ACTATTTC	0.13
AATCAGAA	-0.0931
AATTTGAG	-0.0599
ATCTCCAT	0.0303
GGACTGAC	-0.252
ATTTATTA	0.309
TTTGAAAA	0.111
ACAAGCTC	-0.252
CGAAGGAC	0.0868
GGCCAGCC	-0.21
CACTGTCG	0.0343
TGGACAAA	0.0107
CGTTGCAC	0.0663
GATATCAC	0.414
CCGTTTCG	0.135
CGCACCGA	-0.137
ACAGTTCG	0.00858
AATTCGAC	-0.189
CCACTGAC	-0.179
ACCCTACC	-0.0929
TACGATGA	0.293
AGAGCGTA	-0.176
